This assay deals with Chaetomium thermophilum PCNA (proliferating cell nuclear antigen) (Chaetomium thermophilum). Briefly: crystal structure; Ct PCNA (14 mg/mL) mixed with Ct Fen1 PIP peptide (8 mg/mL in DMSO); crystals in 2.4 M sodium malonate dibasic monohydrate pH 7.0; space group H32, one PCNA chain in the asymmetric unit; 1.95 A; both purified.

Results are given in words; binding and its absence hold for the method and conditions named. Binding calls can cover weak binding; strength is not graded here.

In the case of GAQQARIEGFFKVIP [Ct Fen1 PIP peptide (15mer, residues 339-353)], the binding entry is reported as “binds”.

These data come from PMC10787639 (Frontiers in Molecular Biosciences, 2023).
